According to PubChem BioAssay AID330 (DTP/NCI, 2004):
The list does not hold the whole screen: it is rich in T/C values a quarter to a half above the control, in often repeated tests (any T/C) and in doses without a T/C. Other doses and runs of a compound stand elsewhere. T/C is the treated group as % of the vehicle group. Some entries give survivors of the animals treated and no T/C: the source holds a T/C of zero for them, seemingly a mark for toxic or unscored doses. Some survivor counts are full or nearly so, which does not show that the dose was tolerated: the source hardly ever lists a survival T/C far under the control, and the zero likely stands for such cases as well. Survivors were counted at the toxicity check, usually on the fifth day, unless a day is given; later deaths do not show. Schedules are NCI's codes, read here as Q, the interval in days (D) or hours (H), X, the number of doses. For survival time, the PubChem record calls one and a half times the control and up active, and a quarter to a half above the control has no call in these data; cut-offs in other NCI protocols can differ. Some entries hold several experiments; the values are given in rising order.

System: P388 leukemia ip, CD2F1 mice, survival T/C
Experiment: NCI In Vivo Anticancer Drug Screen. Data for tumor model P388 Leukemia (intraperitoneal) in CD2F1 (CDF1) mice
Conditions: T/C endpoint: median survival time, higher T/C = longer survival
[1] = dose: 25.0 mg/kg/injection, schedule: Q01DX005 (ip), vehicle: Klucel (hydroxypropylcellulose) (HPC)
[2] = dose: 50.0 mg/kg/injection, schedule: Q01DX005 (ip), vehicle: Klucel (hydroxypropylcellulose) (HPC)
[3] = dose: 100.0 mg/kg/injection, schedule: Q01DX005 (ip), vehicle: Klucel (hydroxypropylcellulose) (HPC)
[4] = dose: 200.0 mg/kg/injection, schedule: Q01DX005 (ip), vehicle: Klucel (hydroxypropylcellulose) (HPC)
[5] = dose: 240.0 mg/kg/injection, schedule: Q01DX005 (ip), vehicle: Klucel (hydroxypropylcellulose) (HPC)
[6] = dose: 60.0 mg/kg/injection, schedule: Q01DX005 (ip), vehicle: saline with Tween-80
[7] = dose: 120.0 mg/kg/injection, schedule: Q01DX005 (ip), vehicle: saline with Tween-80
[8] = dose: 240.0 mg/kg/injection, schedule: Q01DX005 (ip), vehicle: saline with Tween-80
[9] = dose: 100.0 mg/kg/injection, schedule: Q01DX009 (ip), vehicle: Klucel (hydroxypropylcellulose) (HPC)
[10] = dose: 200.0 mg/kg/injection, schedule: Q01DX009 (ip), vehicle: Klucel (hydroxypropylcellulose) (HPC)
[11] = dose: 200.0 mg/kg/injection, schedule: Q01DX005 (ip), vehicle: saline

Q: `CCCCN(CCCC)C(=N)c1ccccc1Cl` was tested. Which survivor count [1] did it give?
A: 0 of 5

Q: And the survivor count [2]?
A: 0 of 5

Q: And the survivor count [3]?
A: 0 of 5

Q: And the survivor count [4]?
A: 0 of 5

Q: For `Cn1cnc2cc3c(cc2c1=O)nc1n3CCCC1`, which survivor count (dose: 400.0 mg/kg/injection, schedule: Q04DX003 (ip), vehicle: saline) is on record?
A: 3 of 6

Q: Which survivor count (dose: 200.0 mg/kg/injection, schedule: Q01DX009 (ip), vehicle: saline) does the source give for `N=C(N)c1cccc([N+](=O)[O-])c1` here?
A: 0 of 6

Q: What does the source list for `Nc1nc(N)nc(NCCSSCCNc2nc(N)nc(N)n2)n1`?
A: survivor count (dose: 100.0 mg/kg/injection, schedule: Q01DX009 (ip), vehicle: other): 6 of 6; survivor count (dose: 200.0 mg/kg/injection, schedule: Q01DX009 (ip), vehicle: other): 6 of 6

Q: With `Brc1nc(Br)c(Br)[nH]1` as the compound, how does the survivor count (dose: 25.0 mg/kg/injection, schedule: Q01DX009 (ip), vehicle: saline sonified) read?
A: 4 of 6

Q: What about the survivor count (dose: 100.0 mg/kg/injection, schedule: Q01DX009 (ip), vehicle: saline sonified) of the same compound?
A: 1 of 6

Q: Which survivor count (dose: 200.0 mg/kg/injection, schedule: Q01DX005 (ip), vehicle: distilled water + Tween-80) does the source give for `O=c1c2ccccc2sc2c1c(N(CCO)CCO)cc1ccccc12` here?
A: 3 of 6

Q: With `Cc1cccc(Cl)c1NC(=O)CSCCN(C)C` as the compound, how does the survivor count [5] read?
A: 0 of 6

Q: Which results are given for `C[Si](C)(C)CSC#N`?
A: survivor count [6]: 0 of 6; survivor count [7]: 0 of 6; survivor count [8]: 0 of 6

Q: Which survivor count (dose: 50.0 mg/kg/injection, schedule: Q01DX009 (ip), vehicle: Klucel (hydroxypropylcellulose) (HPC)) does the source give for `COC(C)(C)O/N=C(\C[P+](c1ccccc1)(c1ccccc1)c1ccccc1)c1ccc(Cl)cc1` here?
A: 0 of 6

Q: And the survivor count [9]?
A: 0 of 6

Q: And the survivor count [10]?
A: 0 of 6

Q: `c1ccc([C@H]2CN3CCSC3=N2)cc1` was tested. Which survivor count (dose: 40.0 mg/kg/injection, schedule: Q01DX009 (ip), vehicle: saline) did it give?
A: 1 of 5

Q: `CCCCCCCCSc1nc2ccc(N=Cc3ccccc3O)cc2s1` was tested. Which survivor count [9] did it give?
A: 6 of 6

Q: `O=NNc1cnc(Br)cn1` was tested. Which T/C (dose: 50.0 mg/kg/injection, schedule: Q01DX009 (ip), vehicle: water) did it give?
A: 126 and 133 % of control

Q: `O=P(O)(O)SP(=O)(O)O.[Co]` was tested. Which survivor count [10] did it give?
A: 0 of 6

Q: How did the survivor count (dose: 120.0 mg/kg/injection, schedule: Q01DX005 (ip), vehicle: Klucel (hydroxypropylcellulose) (HPC)) turn out when `Cc1cc2c(C)c(-c3ccccc3)c(=O)oc2c(C#N)c1C` was run?
A: 6 of 6

Q: What about the survivor count [5] of the same compound?
A: 5 of 6

Q: With `CO[C@@]12[C@@H]3N[C@@H]3CN1C1=C(C(=O)C(NCC3CCCO3)=C(C)C1=O)[C@@H]2COC(N)=O` (some centres undefined) as the compound, how does the T/C (dose: 3.12 mg/kg/injection, schedule: Q01DX005 (ip), vehicle: distilled water + Tween-80) read?
A: 146 % of control

Q: And the T/C (dose: 3.13 mg/kg/injection, schedule: Q01DX001 (ip), vehicle: distilled water + Tween-80)?
A: 145 % of control

Q: And the T/C (dose: 6.25 mg/kg/injection, schedule: Q01DX001 (ip), vehicle: distilled water + Tween-80)?
A: 142 % of control

Q: `COc1cc2c(C)cc(=O)oc2c(OCC(O)CN2CCCC2)c1OC` (centres undefined) was tested. Which survivor count (dose: 240.0 mg/kg/injection, schedule: Q01DX005 (ip), vehicle: saline) did it give?
A: 0 of 6

Q: For `O=C1NC(=O)C2=C1CCC2Br` (centres undefined), which survivor count (dose: 12.5 mg/kg/injection, schedule: Q01DX009 (ip), vehicle: distilled water + Tween-80) is on record?
A: 3 of 6

Q: What about the survivor count (dose: 25.0 mg/kg/injection, schedule: Q01DX009 (ip), vehicle: distilled water + Tween-80) of the same compound?
A: 0 of 6

Q: What about the survivor count (dose: 50.0 mg/kg/injection, schedule: Q01DX009 (ip), vehicle: distilled water + Tween-80) of the same compound?
A: 0 of 6

Q: And the survivor count (dose: 100.0 mg/kg/injection, schedule: Q01DX009 (ip), vehicle: distilled water + Tween-80)?
A: 0 of 6

Q: What does the source list for `Cc1ccc(S(=O)(=O)OCCN(CCOS(=O)(=O)c2ccc(C)cc2)c2ccc(N=O)cc2)cc1`?
A: T/C (dose: 66.0 mg/kg/injection, schedule: Q04DX003 (ip), vehicle: saline sonified): 127 % of control; T/C (dose: 150.0 mg/kg/injection, schedule: Q04DX003 (ip), vehicle: saline sonified): 140 % of control

Q: What does the source list for `CCOc1ccccc1NC1=C(Cl)C(=O)c2ccccc2C1=O`?
A: survivor count [7]: 0 of 6; survivor count [8]: 0 of 6

Q: For `CN(C)CC(CN(C)C)C(=O)/C=C/c1ccc2c(c1)OCO2`, which survivor count (dose: 6.25 mg/kg/injection, schedule: Q01DX005 (ip), vehicle: Klucel (hydroxypropylcellulose) (HPC)) is on record?
A: 3 of 6

Q: And the survivor count (dose: 12.5 mg/kg/injection, schedule: Q01DX005 (ip), vehicle: Klucel (hydroxypropylcellulose) (HPC))?
A: 0 of 6

Q: And the survivor count [1]?
A: 0 of 6

Q: What about the survivor count [2] of the same compound?
A: 0 of 6

Q: What about the survivor count [3] of the same compound?
A: 0 of 6

Q: What about the survivor count [4] of the same compound?
A: 0 of 6

Q: Which survivor count (dose: 800.0 mg/kg/injection, schedule: Q01DX005 (ip), vehicle: saline) does the source give for `O=S(O)O` here?
A: 0 of 6

Q: How did the survivor count [11] turn out when `Cc1cc(F)nc(F)n1` was run?
A: 0 of 6

Q: For `O=C(NCCCl)Nc1[nH]c(=O)ncc1I`, which survivor count (dose: 15.0 mg/kg/injection, schedule: Q01DX005 (ip), vehicle: saline with Tween-80) is on record?
A: 0 of 6

Q: What about the survivor count (dose: 30.0 mg/kg/injection, schedule: Q01DX005 (ip), vehicle: saline with Tween-80) of the same compound?
A: 0 of 6

Q: And the survivor count [6]?
A: 0 of 6

Q: And the survivor count [7]?
A: 0 of 6

Q: And the survivor count [8]?
A: 0 of 6

Q: `CCc1cccc(CC)c1NC(=O)c1ccc(C)cc1` was tested. Which survivor count [8] did it give?
A: 6 of 6

Q: Which survivor count (dose: 1.56 mg/kg/injection, schedule: Q01DX009 (ip), vehicle: saline with Tween-80) does the source give for `O=[N+]([O-])C1C2C=CC(C2)C1C(Cl)(Cl)Cl` (centres undefined) here?
A: 2 of 6

Q: And the survivor count (dose: 3.12 mg/kg/injection, schedule: Q01DX009 (ip), vehicle: saline with Tween-80)?
A: 0 of 6

Q: What about the survivor count (dose: 6.25 mg/kg/injection, schedule: Q01DX009 (ip), vehicle: saline with Tween-80) of the same compound?
A: 0 of 6

Q: And the survivor count (dose: 12.5 mg/kg/injection, schedule: Q01DX009 (ip), vehicle: saline with Tween-80)?
A: 0 of 6

Q: What about the survivor count (dose: 25.0 mg/kg/injection, schedule: Q01DX009 (ip), vehicle: saline with Tween-80) of the same compound?
A: 0 of 6

Q: What about the survivor count (dose: 50.0 mg/kg/injection, schedule: Q01DX009 (ip), vehicle: saline with Tween-80) of the same compound?
A: 0 of 6

Q: What about the survivor count (dose: 100.0 mg/kg/injection, schedule: Q01DX009 (ip), vehicle: saline with Tween-80) of the same compound?
A: 0 of 6

Q: And the survivor count (dose: 200.0 mg/kg/injection, schedule: Q01DX009 (ip), vehicle: saline with Tween-80)?
A: 0 of 6

Q: How did the survivor count [11] turn out when `CC1=CC(=C2C(=O)c3ccccc3C2=O)C=C(C)N1CCN1CCCCC1` was run?
A: 2 of 6

Q: What about the survivor count [5] of the same compound?
A: 4 of 6

Q: What does the source list for `NC(=S)c1ccc(C2Nc3ccc(Cl)cc3N2)cc1` (centres undefined)?
A: survivor count (dose: 100.0 mg/kg/injection, schedule: Q04DX002 (ip), vehicle: saline with Tween-80): 4 of 6; survivor count (dose: 200.0 mg/kg/injection, schedule: Q04DX002 (ip), vehicle: saline with Tween-80): 0 of 6; survivor count (dose: 400.0 mg/kg/injection, schedule: Q04DX002 (ip), vehicle: saline with Tween-80): 1 of 6

Q: With `CCCCNC(=O)c1cc(NC(=O)c2ccc(C(=O)Nc3cc(C(=O)NCCCC)cc(C4N=CCN4)c3)cc2)cc(C2=NCCN2)c1` (centres undefined) as the compound, how does the survivor count (dose: 200.0 mg/kg/injection, schedule: Q01DX005 (ip), vehicle: saline with Tween-80) read?
A: 4 of 6
